# According to the supplement of paper PMC10689618:
# The other results are listed elsewhere or left out. Repeats are few or missing, and single values can be far off.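 Labelled rat cortical synaptosomes were engulfed by primary human fetal astrocytes. Engulfment equaled a red/green ratio, corrected for calcein live-cell signal and normalized to the plate median. Compounds were toxic when calcein dropped over 30%, and reduced phagocytosis when below 70% of the median above 5 µM.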
# Test system: Human fetal astrocytes
# Assay: loss of total cells relative to no-compound high-control median (toxicity); higher = more toxic (fewer cells)
# Conditions: 1.39 µM; 24 h
row,SMILES,loss of total cells
1,COc1cc2c(cc1OC)-c1c(oc3cc(O)cc(O)c3c1=O)CO2,-22.8%
2,"Oc1ccc(/C=C/c2cc(O)cc(O)c2)cc1 [5-[2-(4-hydroxyphenyl)vinyl]-1,3-benzenediol]",-36.1%
3,CC(=O)OC1CCC2(C)C3=C(CC[C@H]2C1(C)C)[C@@]1(C)CC[C@@H]([C@@H](C)CCC=C(C)C)[C@]1(C)CC3 (stereo partly specified),13.4%

# Same assay, conditions: 2.78 µM; 24 h
row,SMILES,loss of total cells
1,CC(C(=O)O)c1ccc(C(=O)c2cccs2)cc1 (stereo unspecified),-9.5%
2,CN1CC(=O)NC1=N,6.1%
3,C=C[C@@H](C1=CC(=O)C(OC)=C(OC)C1=O)c1ccccc1,-11.3%
4,C[C@]12CCC(=O)C=C1CC[C@@H]1[C@@H]2[C@@H](O)C[C@@]2(C)[C@H]1CC[C@]2(O)C(=O)COP(=O)(O)O,-24.1%
5,C[N+](C)(C)C[C@H](O)CC(=O)[O-],-27%
6,C[C@H]1COC2=C1C(=O)C(=O)c1c2ccc2c1CCCC2(C)C,-1.1%
7,NC[C@H]1CC[C@H](C(=O)O)CC1,2.1%
8,COc1ccc(-c2cc(=O)c3c(O)cc(OC)c(OC)c3o2)c(OC)c1,4.7%
9,COc1cc(O)c(C(C)=O)c(O)c1,1.8%
10,COc1ccc([C@H]2Oc3cc(OC)cc(OC)c3C[C@H]2O)cc1,6%
11,O=C(O)[C@H](O)[C@@H](O)[C@H](O[C@@H]1O[C@H](CO)[C@H](O)[C@H](O)[C@H]1O)[C@H](O)CO,18.4%
12,CCOc1ccc(NC(=O)CC(C)O)cc1 (stereo unspecified),25.6%
13,Cc1ccc(S(=O)(=O)NC(=O)NN2CCCCCC2)cc1 [Tolazamide],-9.5%
14,c1ccc(CN(CC2=NCCN2)c2ccccc2)cc1,-10.7%
15,CC(C)(C)NCC(O)c1cc(O)cc(O)c1 (stereo unspecified),-5.1%
16,CC(C)(Oc1ccc(CCNC(=O)c2ccc(Cl)cc2)cc1)C(=O)O,4.6%
17,O=C(O)CS,-6.9%
18,NC(=O)N1c2ccccc2CC(=O)c2ccccc21 [Trileptal],-41.3%
19,CC(C)=CCC[C@@H](C)[C@@H]1CC[C@]2(C)C3=C(CC[C@@]12C)[C@@]1(C)CC[C@H](O)C(C)(C)[C@@H]1CC3,7.3%
20,COc1cc(C)c(C(=O)Oc2cc(C)c(C(=O)O)c(O)c2C)c(OC)c1C,-13.4%

row,SMILES,loss of total cells
1,CON,9%
2,O=C(O)Cc1cc(I)c(Oc2ccc(O)c(I)c2)c(I)c1,26.4%
3,CC(=O)Oc1cc(OC(C)=O)c2c(c1)O[C@H](c1ccc(OC(C)=O)c(OC(C)=O)c1)[C@H](OC(C)=O)C2,0%
4,Cc1occc(=O)c1O,-21.3%
5,CC(=O)C1CCC2C3CC=C4CC(OS(=O)(=O)O)CCC4(C)C3CCC12C (stereo unspecified),4%
6,CC(=O)NCCCCCC(=O)O,13.4%
7,c1coc(CNc2ncnc3[nH]cnc23)c1,17%
8,CC(=O)Nc1ccc(S(=O)(=O)c2ccc(NC(C)=O)cc2)cc1,0.3%
9,O=C(O)CCNC(=O)c1ccccc1,24.2%
10,CC1(C)S[C@@H]2[C@H](NC(=O)[C@H](N)c3ccc(O)cc3)C(=O)N2[C@H]1C(=O)O,-0.3%
11,CC(=O)Oc1cc(OC(C)=O)c2c(c1)O[C@H](c1ccc(OC(C)=O)c(OC(C)=O)c1)[C@@H](OC(C)=O)C2,-10%
12,COCCc1ccc(OCC(O)CNC(C)C)cc1 (stereo unspecified),-11.3%
13,O=C(O)C(S)C(S)C(=O)O (stereo unspecified),3.2%
14,O=c1[nH]cnc2c1ncn2[C@@H]1O[C@H](CO)[C@@H](O)[C@H]1O,-15.5%
15,CN(C(=O)CN(CCO)CC(=O)N(C)C(C)(C)Cc1ccccc1)C(C)(C)Cc1ccccc1,-30.2%
16,CC(C)C[C@@H]1NC(=O)[C@H](CCCN)NC(=O)[C@H](C(C)C)NC(=O)[C@H](Cc2ccc(O)cc2)N[C@@H](CCC(=O)O)C(=O)N[C@@H](CC(N)=O)C(=O)[C@@H](Cc2ccccc2)NC(=O)[C@H](Cc2ccccc2)NC(=O)[C@@H]2CCCN2C(=O)[C@@H](Cc2ccccc2)NC1=O,30.8%
17,COc1cc2c(cc1OC)-c1c(oc3cc(O)cc(O)c3c1=O)CO2,2%
18,"Oc1ccc(/C=C/c2cc(O)cc(O)c2)cc1 [5-[2-(4-hydroxyphenyl)vinyl]-1,3-benzenediol]",-9%
19,CC(=O)OC1CCC2(C)C3=C(CC[C@H]2C1(C)C)[C@@]1(C)CC[C@@H]([C@@H](C)CCC=C(C)C)[C@]1(C)CC3 (stereo partly specified),0.4%

# Same assay, conditions: 5.56 µM; 24 h
row,SMILES,loss of total cells
1,CC(C(=O)O)c1ccc(C(=O)c2cccs2)cc1 (stereo unspecified),4.5%
2,CN1CC(=O)NC1=N,-2.2%
3,C=C[C@@H](C1=CC(=O)C(OC)=C(OC)C1=O)c1ccccc1,42%
4,C[C@]12CCC(=O)C=C1CC[C@@H]1[C@@H]2[C@@H](O)C[C@@]2(C)[C@H]1CC[C@]2(O)C(=O)COP(=O)(O)O,-15.3%
5,C[N+](C)(C)C[C@H](O)CC(=O)[O-],8.1%
6,C[C@H]1COC2=C1C(=O)C(=O)c1c2ccc2c1CCCC2(C)C,-12.5%
7,NC[C@H]1CC[C@H](C(=O)O)CC1,17.1%
8,COc1ccc(-c2cc(=O)c3c(O)cc(OC)c(OC)c3o2)c(OC)c1,2.9%
9,COc1cc(O)c(C(C)=O)c(O)c1,-0.7%
10,COc1ccc([C@H]2Oc3cc(OC)cc(OC)c3C[C@H]2O)cc1,30.5%
11,O=C(O)[C@H](O)[C@@H](O)[C@H](O[C@@H]1O[C@H](CO)[C@H](O)[C@H](O)[C@H]1O)[C@H](O)CO,8.7%
12,CCOc1ccc(NC(=O)CC(C)O)cc1 (stereo unspecified),5.1%
13,Cc1ccc(S(=O)(=O)NC(=O)NN2CCCCCC2)cc1 [Tolazamide],15.3%
14,c1ccc(CN(CC2=NCCN2)c2ccccc2)cc1,6.3%
15,CC(C)(C)NCC(O)c1cc(O)cc(O)c1 (stereo unspecified),4.9%
16,CC(C)(Oc1ccc(CCNC(=O)c2ccc(Cl)cc2)cc1)C(=O)O,-4.5%
17,O=C(O)CS,8.1%
18,NC(=O)N1c2ccccc2CC(=O)c2ccccc21 [Trileptal],7.5%
19,CC(C)=CCC[C@@H](C)[C@@H]1CC[C@]2(C)C3=C(CC[C@@]12C)[C@@]1(C)CC[C@H](O)C(C)(C)[C@@H]1CC3,35.9%
20,COc1cc(C)c(C(=O)Oc2cc(C)c(C(=O)O)c(O)c2C)c(OC)c1C,-3.7%

row,SMILES,loss of total cells
1,CON,-3.7%
2,O=C(O)Cc1cc(I)c(Oc2ccc(O)c(I)c2)c(I)c1,19.6%
3,CC(=O)Oc1cc(OC(C)=O)c2c(c1)O[C@H](c1ccc(OC(C)=O)c(OC(C)=O)c1)[C@H](OC(C)=O)C2,9.2%
4,Cc1occc(=O)c1O,3.7%
5,CC(=O)C1CCC2C3CC=C4CC(OS(=O)(=O)O)CCC4(C)C3CCC12C (stereo unspecified),-5.9%
6,CC(=O)NCCCCCC(=O)O,9.4%
7,c1coc(CNc2ncnc3[nH]cnc23)c1,27.5%
8,CC(=O)Nc1ccc(S(=O)(=O)c2ccc(NC(C)=O)cc2)cc1,8.1%
9,O=C(O)CCNC(=O)c1ccccc1,15.2%
10,CC1(C)S[C@@H]2[C@H](NC(=O)[C@H](N)c3ccc(O)cc3)C(=O)N2[C@H]1C(=O)O,13.5%
11,CC(=O)Oc1cc(OC(C)=O)c2c(c1)O[C@H](c1ccc(OC(C)=O)c(OC(C)=O)c1)[C@@H](OC(C)=O)C2,-16.8%
12,COCCc1ccc(OCC(O)CNC(C)C)cc1 (stereo unspecified),11.1%
13,O=C(O)C(S)C(S)C(=O)O (stereo unspecified),16.1%
14,O=c1[nH]cnc2c1ncn2[C@@H]1O[C@H](CO)[C@@H](O)[C@H]1O,1.4%
15,CN(C(=O)CN(CCO)CC(=O)N(C)C(C)(C)Cc1ccccc1)C(C)(C)Cc1ccccc1,-8.7%
16,CC(C)C[C@@H]1NC(=O)[C@H](CCCN)NC(=O)[C@H](C(C)C)NC(=O)[C@H](Cc2ccc(O)cc2)N[C@@H](CCC(=O)O)C(=O)N[C@@H](CC(N)=O)C(=O)[C@@H](Cc2ccccc2)NC(=O)[C@H](Cc2ccccc2)NC(=O)[C@@H]2CCCN2C(=O)[C@@H](Cc2ccccc2)NC1=O,40.4%
17,COc1cc2c(cc1OC)-c1c(oc3cc(O)cc(O)c3c1=O)CO2,41.2%
18,"Oc1ccc(/C=C/c2cc(O)cc(O)c2)cc1 [5-[2-(4-hydroxyphenyl)vinyl]-1,3-benzenediol]",21.2%
19,CC(=O)OC1CCC2(C)C3=C(CC[C@H]2C1(C)C)[C@@]1(C)CC[C@@H]([C@@H](C)CCC=C(C)C)[C@]1(C)CC3 (stereo partly specified),10.9%
